Measurements as given in PubChem BioAssay AID504834 (National Center for Advancing Translational Sciences (NCATS), 2011).
Out of some 320,000 compounds screened, about 22,000 (6.9%) were called active. Inconclusive results, whose numbers are uncertain, are shown with a selection of clear calls. The call rests on the fitted dose curve; in most records, active means well fitted inhibition curve with a large enough effect; inconclusive means small, poorly fitted or top-dose-only effect, or another doubt; inactive means no such curve, though single readings can be large or run the other way. Potencies beside an inconclusive call are fits to weak or partial responses and may not hold up.
On the % scale 0 is the no-effect control and ±100 the full control effect; potency means the concentration at half of the fitted maximal effect.

Test: Primary qHTS for delayed death inhibitors of the malarial parasite plastid, 96 hour incubation
Settings: P. falciparum luciferase reporter growth; series mostly up to 28.7 µM; activity change, negative = inhibition: at the top concentration
Summary of the method: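 Plates of compound plus infected erythrocytes (2% hematocrit, 0.05% parasitemia final) incubate 96 hours, 37 C, 5% CO2. Detection reagent added; reduced luminescence from the parasites' luciferase reporter flags inhibition.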
With `CC(C)CCCC(C)C1CC(=O)C2=C3CCC4CC(O)CCC4(C)C3CCC21C` (stereo unspecified) the Potency was inconclusive: 5.36 µM [inhibitor, partial curve, poor fit]. In the case of `COc1ccc(-n2nc(C(=O)NCC(=O)NC(C)C)c3ccccc3c2=O)cc1`, the “activity change, negative = inhibition” value is reported as inactive: 21.1%. For `O=C1NC(=O)/C(=C\c2ccc(Sc3ccc(Cl)cc3)o2)N1`, the Potency was inconclusive: 7.38 µM [inhibitor, partial curve, poor fit]. With `C=C(C)[C@H]1CC=C(C)C(=O)C1` the “activity change, negative = inhibition” value was inactive: 39.7%. In the case of `COc1ccc(-c2csc3nc(C)nc(N4CCN(c5ccc(C(C)=O)cc5)CC4)c23)cc1OC`, the Potency is reported as inconclusive: 0.828 µM [inhibitor, full curve, poor fit]. For `CCN(CC)CCCNC(=S)Nc1ccc(Br)cc1`, the Potency was inconclusive: 1.04 µM [inhibitor, full curve, poor fit]. For `O=C(NCCN1CCOCC1)c1ccc(CS(=O)(=O)c2c(Cl)cccc2Cl)o1`, the Potency was inconclusive: 18.5 µM [inhibitor, single point]. With `O=C(Nc1cccc(S(=O)(=O)N2CCOCC2)c1)c1cc2ccccc2o1` the “activity change, negative = inhibition” value was inactive: -27.9%. With `CCCCCN(C(=O)CCC(=O)OCCOc1ccccc1Cl)c1c(N)n(CCCC)c(=O)[nH]c1=O` the Potency was inconclusive: 18.5 µM [inhibitor, single point]. In the case of `Cc1cccc(-c2nn(-c3ccccc3)cc2C(=O)Nc2cccc(S(=O)(=O)NC3=NCCC3)c2)c1`, the “activity change, negative = inhibition” value is reported as inactive: -9.79%. For `COc1ccccc1NC1=NC2(CCCC2)N=C(N)N1`, the Potency was inconclusive: 5.22 µM [inhibitor, single point]. In the case of `Cc1ccc(CC(=O)NCCS(=O)c2ccc(Cl)cc2)cc1` (stereo unspecified), the Potency is reported as inconclusive: 2.33 µM [inhibitor, full curve]. In the case of `Cc1cccc(N2C(=O)C(Cl)=C(N3CCOCC3)C2=O)c1`, the Potency is reported as inconclusive: 18.5 µM [inhibitor, single point]. For `COc1cc(NC(=O)c2cccs2)c(OC)cc1NC(=O)Cc1ccccc1`, the Potency was inconclusive: 0.262 µM [inhibitor, full curve, poor fit]. With `COc1ccc(OC)c(CN2CCN(C(=O)c3cc(S(=O)(=O)Nc4ccccc4OC)ccc3C)CC2)c1` the Potency was active: 3.29 µM. For `COC(=O)c1ccc2c(c1)C(C)(C)C(/C=C/c1ccc(OC)c(OC)c1OC)=[N+]2C`, the Potency was active: 2.33 µM. With `O=C(NCc1ccccc1)NC(=O)c1ccncc1` the Potency was inconclusive: 9.28 µM [inhibitor, partial curve]. In the case of `COc1ccc(-n2c(Cc3cccn3C)nnc2SCC(=O)Nc2cccc(NC(C)=O)c2)cc1`, the “activity change, negative = inhibition” value is reported as inactive: 0%. With `C=CCn1c(SCC(=O)Nc2sccc2C(N)=O)nc2ccc(Cl)cc2c1=O` the “activity change, negative = inhibition” value was inactive: -45.6%. For `CC1(C(=O)Nc2cccc(C(F)(F)F)c2)CO1` (stereo unspecified), the “activity change, negative = inhibition” value was inactive: 5.29%. With `Cc1ccc(O)c(N=Cc2sc3ccccc3c2Cl)c1` the Potency was inconclusive: 10.4 µM [inhibitor, single point]. In the case of `COc1ccc2nc(NC(=O)Cc3ccc(OC)c(S(=O)(=O)N4CCOCC4)c3)sc2c1`, the Potency is reported as inconclusive: 18.5 µM [inhibitor, single point]. With `CN1CCN(C(=O)C2=C[C@@H](c3csc4ccccc34)C[C@@H](OCCCCO)O2)CC1` the “activity change, negative = inhibition” value was inactive: 34.6%. With `COc1ccccc1C1C2=C(N=C3SCC(=O)N31)c1ccccc1CC2` (stereo unspecified) the Potency was inconclusive: 2.08 µM [inhibitor, partial curve]. In the case of `Cc1c(C(=O)N/N=C/c2cccnc2)sc(=S)n1C`, the “activity change, negative = inhibition” value is reported as inactive: 2.12%. For `CCN(CC)CCN(C(=O)c1ccc2c(c1)OCCO2)c1nc2ccc(C)cc2s1`, the Potency was inconclusive: 18.5 µM [inhibitor, single point]. For `COc1ccccc1NC(=O)C1CCN(S(=O)(=O)c2cccc3nonc23)CC1`, the “activity change, negative = inhibition” value was inactive: 20.5%. With `CN(C)N1C(N)=C(C#N)C(c2ccsc2)C2=C1CC(C)(C)CC2=O` (stereo unspecified) the “activity change, negative = inhibition” value was inactive: 13.7%. With `CCc1c(O)nc(SCC(=O)Nc2ccccc2OC)n(-c2ccccc2C)c1=O` the Potency was inconclusive: 8.28 µM [inhibitor, partial curve, poor fit]. For `CC1=C(C(=O)c2ccccc2)C(c2cccc([N+](=O)[O-])c2)NC(=S)N1` (stereo unspecified), the Potency was inconclusive: 18.5 µM [inhibitor, single point]. In the case of `CCCn1ncc(CN2CCC(C(=O)Nc3cccc(-c4cccc(F)c4)c3)CC2)c1C`, the Potency is reported as inconclusive: 13.1 µM [inhibitor, single point]. In the case of `Cc1ccccc1N(CC(=O)NCc1ccccc1)C(=O)CCC(=O)Nc1nccs1`, the “activity change, negative = inhibition” value is reported as inactive: -6.3%. For `Cc1cccc(N2C(=O)C(Oc3ccc(Cl)cc3Cl)C2C=O)c1C` (stereo unspecified), the Potency was inconclusive: 3.29 µM [inhibitor, full curve, poor fit]. In the case of `COc1ccc(C(=O)Cn2c(NCCCO)nc3ccccc32)cc1OC`, the “activity change, negative = inhibition” value is reported as inactive: 20.7%. In the case of `CCOc1ccc(NC(=O)Cc2ccc(S(=O)(=O)N3CCOCC3)s2)cc1OCC`, the “activity change, negative = inhibition” value is reported as inactive: -8.25%. For `CCOc1cc(N2CCCC2)ccc1[N+](=O)[O-]`, the Potency was active: 6.57 µM. With `Cn1cc(CN2CCC(n3nccc3NC(=O)CCOc3ccccc3)CC2)cn1` the “activity change, negative = inhibition” value was inactive: -29.9%. For `Cc1ccc(S(=O)(=O)N2CCC(C(=O)N3CCN(Cc4ccccc4)CC3)CC2)cc1`, the Potency was inconclusive: 14.7 µM [inhibitor, single point]. With `Cc1c(Cl)cccc1NC(=O)NCc1cccnc1` the “activity change, negative = inhibition” value was inactive: 9.88%. In the case of `COc1ccccc1NC(=O)c1ccc(C)c(S(=O)(=O)N2CCCCC2)c1`, the Potency is reported as inconclusive: 10.4 µM [inhibitor, single point]. With `Cn1c(CC(=O)Nc2ccccc2F)nnc1SCC(=O)Nc1nncs1` the Potency was inconclusive: 9.28 µM [inhibitor, single point]. With `COc1ccc(N=Cc2c(O)ccc3ccccc23)cc1` the “activity change, negative = inhibition” value was inactive: 14%. In the case of `COc1ccc(-c2noc(COc3ccccc3OC)n2)cc1OC`, the “activity change, negative = inhibition” value is reported as inactive: 22%. In the case of `Cc1ccc(S(=O)(=O)N2CCN(C(=O)CSc3nccn3C)CC2)cc1`, the “activity change, negative = inhibition” value is reported as inactive: -3.85%. In the case of `CC1CCN(C(=O)Cn2c(=O)c3cccn3c3ccccc32)CC1`, the Potency is reported as inconclusive: 18.5 µM [inhibitor, single point]. In the case of `CCCCOc1ccc(CN2CCN(CC)CC2)cc1`, the Potency is reported as inconclusive: 11.7 µM [inhibitor, partial curve, poor fit]. With `CCOC(=O)c1c(-c2ccccc2)csc1NC(=O)C(C)NCCCN1CCOCC1` (stereo unspecified) the Potency was inconclusive: 8.28 µM [inhibitor, partial curve, poor fit]. In the case of `CCOC(=O)c1c(C)n(CC(O)CN(C)C)c2cc(Br)c(OC)cc12` (stereo unspecified), the Potency is reported as inconclusive: 1.85 µM [inhibitor, full curve]. With `COc1ccc(C[C@H]2CN3C(=NC[C@@H]3C(C)C)N2CCNC(=O)CCC2CCCCC2)cc1` the Potency was active: 4.65 µM. With `Cc1cc(C)cc(NC(=O)N(C)Cc2ccccc2)c1` the “activity change, negative = inhibition” value was inactive: -14.3%. With `CC(=O)N1CCN(c2ccc(NCc3ccco3)cc2)CC1` the Potency was inconclusive: 2.94 µM [inhibitor, single point]. In the case of `COC(=O)CCc1sc(Nc2ccc(Br)cc2)nc1-c1ccc(OC)cc1`, the Potency is reported as inconclusive: 14.7 µM [inhibitor, partial curve, poor fit]. For `COc1ccccc1NC(=O)c1cc2c(=O)n(C)c3ccccc3c2n1C`, the Potency was inconclusive: 11.7 µM [inhibitor, single point]. With `C=CCn1c(SCc2ccccc2)nc2c1c(=O)[nH]c(=O)n2C` the “activity change, negative = inhibition” value was inactive: -26.5%. With `CCCn1c(C)cc(=O)c2cc(NC(=O)c3cnccn3)ccc21` the “activity change, negative = inhibition” value was inactive: 21.8%. In the case of `CC1(C)CC(=O)/C(=C(\O)c2ccccc2)C(=NCCO)C1`, the Potency is reported as inconclusive: 2.33 µM [inhibitor, partial curve, poor fit]. With `COc1ccc(CC2(CO)CCN(Cc3cnn(-c4ccccc4)c3)CC2)cc1` the “activity change, negative = inhibition” value was inactive: -4.5%. For `CCn1cc(/C=C(\NC(=O)c2ccc(OC)c(OC)c2)C(=O)NCCN2CCOCC2)c2ccccc21`, the Potency was inconclusive: 6.57 µM [inhibitor, partial curve]. For `CCc1nc2ccc(C(=O)N3CCN(c4ccc([N+](=O)[O-])cc4)CC3)cc2nc1CC`, the Potency was inconclusive: 16.5 µM [inhibitor, single point]. For `S=C(c1ccc(-c2cccc(Cl)c2)o1)N1CCCCC1`, the “activity change, negative = inhibition” value was inactive: 485%. In the case of `CCOc1ccccc1NC(=O)COc1ccc2c(c1)OCO2`, the “activity change, negative = inhibition” value is reported as inactive: 30.5%. For `OC(C#CCN1CCOCC1)(c1ccccc1)C1CCCCC1` (stereo unspecified), the Potency was inconclusive: 0.262 µM [inhibitor, full curve, poor fit]. For `COc1cc(-c2nnc(-c3cccnc3)o2)cc(OC)c1OC`, the Potency was inconclusive: 11.7 µM [inhibitor, single point]. With `N#CC(C#N)=C1C=CC=CN1/C(=C\c1ccccc1)C(=O)c1cccs1` the Potency was inconclusive: 0.294 µM [inhibitor, full curve, poor fit]. With `CC(=O)c1cccc(NC(=O)c2sc3nc4n(c(=O)c3c2C)CCCC4)c1` the Potency was inconclusive: 1.47 µM [inhibitor, full curve]. For `O=C(C(NS(=O)(=O)c1cccc2nsnc12)c1ccccc1)N1CCN(c2ccccn2)CC1` (stereo unspecified), the Potency was inconclusive: 0.828 µM [inhibitor, full curve, poor fit]. With `CCOc1cnn(-c2cc(Oc3ccc(C)cc3)ncn2)c(=O)c1Cl` the Potency was inconclusive: 18.5 µM [inhibitor, single point]. With `CCCCn1nc(C(=O)Nc2ccc(S(=O)(=O)Nc3ncccn3)cc2)c2ccccc2c1=O` the Potency was inconclusive: 0.586 µM [inhibitor, full curve, poor fit]. In the case of `COc1ccc(CCN2C(=O)CC(C(N)=O)SC2=Nc2ccccc2)cc1OC` (stereo unspecified), the Potency is reported as inconclusive: 9.28 µM [inhibitor, single point]. For `O=C(Nc1ccc(F)cc1)N1CCN(c2ccc(F)cc2)CC1`, the Potency was inconclusive: 13.1 µM [inhibitor, single point]. For `Cc1cccc(C(=O)Nc2cccc(OCC(=O)O)c2)c1`, the Potency was inconclusive: 18.5 µM [inhibitor, single point].
